This is one part of the list.

By UniProt entry, the sequences of proteins in these tests, tags left out. Where a name states a change or a piece, a line headed by the entry shows the natural chain unless it says otherwise.
UniProt Q9BV20: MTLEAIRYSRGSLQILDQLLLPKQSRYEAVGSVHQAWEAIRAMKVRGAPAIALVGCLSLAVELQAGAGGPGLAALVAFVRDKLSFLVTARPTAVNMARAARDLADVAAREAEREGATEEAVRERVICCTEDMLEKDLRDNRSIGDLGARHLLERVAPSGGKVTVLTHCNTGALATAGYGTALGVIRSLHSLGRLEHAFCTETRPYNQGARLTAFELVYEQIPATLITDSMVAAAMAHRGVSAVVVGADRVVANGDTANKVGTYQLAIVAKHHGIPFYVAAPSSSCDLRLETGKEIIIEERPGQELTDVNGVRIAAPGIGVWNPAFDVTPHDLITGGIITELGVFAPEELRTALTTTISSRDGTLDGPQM
UniProt Q9Y3A3: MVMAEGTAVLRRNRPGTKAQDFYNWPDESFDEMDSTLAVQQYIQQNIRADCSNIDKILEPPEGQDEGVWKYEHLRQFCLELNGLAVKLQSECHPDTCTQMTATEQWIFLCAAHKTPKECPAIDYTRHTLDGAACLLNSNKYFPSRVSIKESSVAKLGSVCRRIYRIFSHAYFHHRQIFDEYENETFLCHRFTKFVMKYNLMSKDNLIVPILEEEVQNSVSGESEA
UniProt Q9BUB5: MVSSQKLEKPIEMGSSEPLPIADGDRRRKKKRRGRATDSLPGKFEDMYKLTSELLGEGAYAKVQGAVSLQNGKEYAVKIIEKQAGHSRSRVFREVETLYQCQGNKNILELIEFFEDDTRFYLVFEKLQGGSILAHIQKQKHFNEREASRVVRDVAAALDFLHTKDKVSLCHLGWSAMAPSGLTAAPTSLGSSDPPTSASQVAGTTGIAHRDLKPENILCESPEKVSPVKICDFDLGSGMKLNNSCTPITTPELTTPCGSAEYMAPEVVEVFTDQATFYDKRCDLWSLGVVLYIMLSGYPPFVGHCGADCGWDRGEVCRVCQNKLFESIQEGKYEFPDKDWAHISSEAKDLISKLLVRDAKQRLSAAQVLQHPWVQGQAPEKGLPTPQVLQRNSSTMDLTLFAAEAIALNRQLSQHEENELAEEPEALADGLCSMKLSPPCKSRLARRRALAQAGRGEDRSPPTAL
UniProt Q9UH92: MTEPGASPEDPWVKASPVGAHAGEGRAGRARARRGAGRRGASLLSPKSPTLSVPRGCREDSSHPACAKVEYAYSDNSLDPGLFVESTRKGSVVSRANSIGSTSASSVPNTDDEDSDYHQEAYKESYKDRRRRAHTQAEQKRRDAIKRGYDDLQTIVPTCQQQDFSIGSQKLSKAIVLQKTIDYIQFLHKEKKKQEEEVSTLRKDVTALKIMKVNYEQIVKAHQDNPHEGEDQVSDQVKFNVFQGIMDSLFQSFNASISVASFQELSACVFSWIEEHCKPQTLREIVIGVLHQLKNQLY
UniProt P34949: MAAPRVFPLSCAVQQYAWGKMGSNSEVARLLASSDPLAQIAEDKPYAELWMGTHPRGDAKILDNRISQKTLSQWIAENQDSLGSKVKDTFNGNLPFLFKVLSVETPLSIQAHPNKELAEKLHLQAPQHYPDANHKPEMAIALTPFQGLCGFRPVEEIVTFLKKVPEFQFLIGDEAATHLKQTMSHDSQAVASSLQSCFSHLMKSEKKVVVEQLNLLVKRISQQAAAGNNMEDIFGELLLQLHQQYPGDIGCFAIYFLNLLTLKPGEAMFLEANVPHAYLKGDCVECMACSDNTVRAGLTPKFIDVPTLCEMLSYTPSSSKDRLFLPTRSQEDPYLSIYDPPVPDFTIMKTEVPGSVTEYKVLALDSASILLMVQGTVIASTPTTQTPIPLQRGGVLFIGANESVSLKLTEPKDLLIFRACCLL
UniProt Q9BU76: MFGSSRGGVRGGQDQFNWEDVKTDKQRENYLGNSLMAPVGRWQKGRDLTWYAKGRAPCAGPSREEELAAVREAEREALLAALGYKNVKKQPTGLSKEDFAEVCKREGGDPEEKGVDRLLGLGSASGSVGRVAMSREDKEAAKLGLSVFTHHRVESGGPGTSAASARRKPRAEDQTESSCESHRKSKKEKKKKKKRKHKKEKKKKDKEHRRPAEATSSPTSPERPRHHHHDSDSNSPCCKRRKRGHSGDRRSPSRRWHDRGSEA
UniProt P25325: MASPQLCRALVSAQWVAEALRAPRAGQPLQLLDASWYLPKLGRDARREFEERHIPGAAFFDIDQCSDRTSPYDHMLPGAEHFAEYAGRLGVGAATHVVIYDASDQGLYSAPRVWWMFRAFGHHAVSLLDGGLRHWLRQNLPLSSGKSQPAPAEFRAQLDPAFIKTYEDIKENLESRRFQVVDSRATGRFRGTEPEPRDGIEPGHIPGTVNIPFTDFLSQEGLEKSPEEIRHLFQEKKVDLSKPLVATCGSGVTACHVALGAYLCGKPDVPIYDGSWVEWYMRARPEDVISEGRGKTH
UniProt Q5TGZ0: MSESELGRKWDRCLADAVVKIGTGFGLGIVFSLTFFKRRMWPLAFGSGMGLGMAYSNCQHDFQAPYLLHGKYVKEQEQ
UniProt Q9UBU8, whole entry, looked up: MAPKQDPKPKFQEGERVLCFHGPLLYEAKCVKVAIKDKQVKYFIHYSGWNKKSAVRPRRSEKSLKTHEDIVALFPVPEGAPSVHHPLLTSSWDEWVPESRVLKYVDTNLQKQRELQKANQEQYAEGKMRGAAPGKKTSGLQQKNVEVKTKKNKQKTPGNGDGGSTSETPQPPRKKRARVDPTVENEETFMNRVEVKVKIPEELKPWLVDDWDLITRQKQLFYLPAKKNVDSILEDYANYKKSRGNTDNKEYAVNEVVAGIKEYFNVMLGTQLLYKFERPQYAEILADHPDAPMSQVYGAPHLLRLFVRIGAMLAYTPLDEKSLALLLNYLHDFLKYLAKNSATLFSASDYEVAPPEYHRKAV
UniProt O95563: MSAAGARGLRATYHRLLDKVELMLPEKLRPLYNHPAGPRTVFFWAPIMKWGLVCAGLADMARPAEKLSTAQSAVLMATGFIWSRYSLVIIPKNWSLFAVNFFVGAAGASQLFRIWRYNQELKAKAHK
UniProt Q9NXC5: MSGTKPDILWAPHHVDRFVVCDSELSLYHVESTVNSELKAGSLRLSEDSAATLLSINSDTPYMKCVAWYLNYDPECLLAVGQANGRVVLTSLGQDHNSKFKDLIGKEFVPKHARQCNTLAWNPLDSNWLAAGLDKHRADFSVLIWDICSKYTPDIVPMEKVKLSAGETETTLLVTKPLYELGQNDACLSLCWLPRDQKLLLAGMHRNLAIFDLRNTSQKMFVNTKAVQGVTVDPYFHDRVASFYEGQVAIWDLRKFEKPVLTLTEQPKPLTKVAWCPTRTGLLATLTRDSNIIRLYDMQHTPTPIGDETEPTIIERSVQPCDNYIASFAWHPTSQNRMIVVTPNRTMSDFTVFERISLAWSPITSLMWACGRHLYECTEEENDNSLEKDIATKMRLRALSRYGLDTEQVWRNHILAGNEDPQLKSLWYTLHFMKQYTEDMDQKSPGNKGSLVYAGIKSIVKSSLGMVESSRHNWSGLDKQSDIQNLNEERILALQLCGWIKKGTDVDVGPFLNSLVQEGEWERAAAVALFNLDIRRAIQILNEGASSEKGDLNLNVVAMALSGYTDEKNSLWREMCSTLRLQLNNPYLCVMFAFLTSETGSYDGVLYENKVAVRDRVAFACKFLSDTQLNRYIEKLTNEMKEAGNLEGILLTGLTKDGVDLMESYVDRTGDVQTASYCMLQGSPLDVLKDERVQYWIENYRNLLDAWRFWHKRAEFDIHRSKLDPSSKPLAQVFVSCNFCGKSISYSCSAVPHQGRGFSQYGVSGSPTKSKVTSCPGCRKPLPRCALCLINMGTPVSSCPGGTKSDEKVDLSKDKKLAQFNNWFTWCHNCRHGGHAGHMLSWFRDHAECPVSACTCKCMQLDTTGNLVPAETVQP
UniProt Q9Y6X9: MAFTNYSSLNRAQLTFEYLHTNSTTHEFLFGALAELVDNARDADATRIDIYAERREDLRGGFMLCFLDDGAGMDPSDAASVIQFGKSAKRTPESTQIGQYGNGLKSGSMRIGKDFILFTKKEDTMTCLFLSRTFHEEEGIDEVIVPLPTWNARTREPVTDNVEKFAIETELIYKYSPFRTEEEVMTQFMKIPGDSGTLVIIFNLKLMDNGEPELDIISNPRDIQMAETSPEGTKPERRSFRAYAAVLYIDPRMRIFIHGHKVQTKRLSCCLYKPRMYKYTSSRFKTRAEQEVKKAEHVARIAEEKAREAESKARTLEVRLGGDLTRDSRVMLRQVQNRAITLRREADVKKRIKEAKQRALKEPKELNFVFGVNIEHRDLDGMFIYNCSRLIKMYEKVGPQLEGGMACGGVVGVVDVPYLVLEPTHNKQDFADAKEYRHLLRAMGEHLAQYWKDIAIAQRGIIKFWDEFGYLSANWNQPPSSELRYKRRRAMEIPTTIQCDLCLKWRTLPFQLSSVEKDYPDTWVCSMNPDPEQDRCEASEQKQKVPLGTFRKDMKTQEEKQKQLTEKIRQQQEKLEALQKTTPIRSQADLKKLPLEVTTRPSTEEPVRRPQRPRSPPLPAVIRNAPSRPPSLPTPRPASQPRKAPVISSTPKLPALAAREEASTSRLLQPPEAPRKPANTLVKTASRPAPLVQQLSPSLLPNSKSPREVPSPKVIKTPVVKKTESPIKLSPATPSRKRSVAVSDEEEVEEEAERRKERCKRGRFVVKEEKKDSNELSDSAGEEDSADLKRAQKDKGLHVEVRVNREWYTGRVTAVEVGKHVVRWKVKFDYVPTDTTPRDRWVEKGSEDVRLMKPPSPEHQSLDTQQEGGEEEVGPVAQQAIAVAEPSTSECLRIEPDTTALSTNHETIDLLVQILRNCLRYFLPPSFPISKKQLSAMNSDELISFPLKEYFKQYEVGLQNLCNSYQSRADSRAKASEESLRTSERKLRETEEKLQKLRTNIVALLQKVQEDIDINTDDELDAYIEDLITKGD
UniProt Q96EY8: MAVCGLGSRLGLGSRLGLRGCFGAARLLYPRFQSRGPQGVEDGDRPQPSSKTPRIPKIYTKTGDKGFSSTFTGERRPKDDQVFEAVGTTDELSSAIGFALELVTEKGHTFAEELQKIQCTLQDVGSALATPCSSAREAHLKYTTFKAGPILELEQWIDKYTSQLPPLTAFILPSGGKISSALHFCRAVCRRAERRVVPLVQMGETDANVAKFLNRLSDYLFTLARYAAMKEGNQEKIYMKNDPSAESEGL
UniProt Q9HC36: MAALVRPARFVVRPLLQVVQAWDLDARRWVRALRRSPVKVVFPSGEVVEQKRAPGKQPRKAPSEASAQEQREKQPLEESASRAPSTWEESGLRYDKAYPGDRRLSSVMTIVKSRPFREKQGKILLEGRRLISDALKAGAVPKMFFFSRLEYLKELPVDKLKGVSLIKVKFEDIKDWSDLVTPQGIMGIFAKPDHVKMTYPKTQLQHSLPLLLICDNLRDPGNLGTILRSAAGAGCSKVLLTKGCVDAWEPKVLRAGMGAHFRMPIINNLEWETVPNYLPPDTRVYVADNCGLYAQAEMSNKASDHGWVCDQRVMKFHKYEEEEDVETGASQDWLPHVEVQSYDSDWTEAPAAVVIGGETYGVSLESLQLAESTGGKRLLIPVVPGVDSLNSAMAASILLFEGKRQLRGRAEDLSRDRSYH
UniProt Q9HAP2: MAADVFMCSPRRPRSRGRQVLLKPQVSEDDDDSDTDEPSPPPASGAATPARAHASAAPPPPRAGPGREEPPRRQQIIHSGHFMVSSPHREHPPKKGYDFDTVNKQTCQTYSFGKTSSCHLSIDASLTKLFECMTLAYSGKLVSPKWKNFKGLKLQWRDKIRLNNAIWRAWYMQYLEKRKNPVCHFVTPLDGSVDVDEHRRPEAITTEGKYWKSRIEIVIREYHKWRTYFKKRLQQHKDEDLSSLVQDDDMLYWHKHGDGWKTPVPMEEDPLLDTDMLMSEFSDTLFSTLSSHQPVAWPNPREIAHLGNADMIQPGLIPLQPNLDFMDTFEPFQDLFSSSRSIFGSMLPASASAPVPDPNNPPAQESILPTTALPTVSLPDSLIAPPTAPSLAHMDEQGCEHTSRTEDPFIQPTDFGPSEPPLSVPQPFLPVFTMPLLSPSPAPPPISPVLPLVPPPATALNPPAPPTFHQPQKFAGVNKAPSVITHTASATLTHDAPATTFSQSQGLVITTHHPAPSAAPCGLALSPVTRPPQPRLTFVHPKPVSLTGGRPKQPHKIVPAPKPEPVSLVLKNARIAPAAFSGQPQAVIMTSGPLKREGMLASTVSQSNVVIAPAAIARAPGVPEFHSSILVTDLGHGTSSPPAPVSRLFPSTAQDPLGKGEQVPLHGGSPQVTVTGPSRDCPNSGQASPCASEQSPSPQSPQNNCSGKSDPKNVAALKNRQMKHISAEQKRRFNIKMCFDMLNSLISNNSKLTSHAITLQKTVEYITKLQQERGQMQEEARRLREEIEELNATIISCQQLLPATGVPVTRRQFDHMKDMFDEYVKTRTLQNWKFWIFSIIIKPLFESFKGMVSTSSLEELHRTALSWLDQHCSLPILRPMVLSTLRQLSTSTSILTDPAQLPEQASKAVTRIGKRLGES
UniProt O14880: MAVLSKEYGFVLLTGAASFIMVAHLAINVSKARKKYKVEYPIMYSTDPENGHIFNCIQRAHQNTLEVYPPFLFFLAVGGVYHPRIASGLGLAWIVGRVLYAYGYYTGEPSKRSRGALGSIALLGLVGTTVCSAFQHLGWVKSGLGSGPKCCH

Compound in one experiment: CC(C)(C)Cn1c(N)nc2ccc(-c3[nH]c(C(C)(C)C)nc3-c3ccc(F)cc3)nc21 [ralimetinib]
Description: log2 fold change, soluble protein after heating vs DMSO (PISA); higher = thermal stabilisation; K562 lysate, 10 uM; active = over 0.2 and 3.5 SD of the protein, either way, in both replicates (recomputed). Summed up:
(§1)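 A 30 min treatment with 10 μM compound was applied to crude K562 extract at 1 mg/mL protein in PBS pH 7.4 with 1 mM MgCl2. Heating for 3 min spanned 48°C-58°C, after which aliquots were pooled, adjusted to 0.5% NP-40 at 4°C and spun at 21,000xg for 90 min. TMTpro 16plex LC-MS/MS of the supernatant, with channel sums equalised, gave values recorded as log-two fold change in thermal stability against solvent controls, from duplicates.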
Consider MGST1 (UniProt P10620), for which the log2 fold change was inactive: 0.054.
Still for that read-out and setting: to MRI1 (UniProt Q9BV20) belongs inactive: 0.012; to MOB4 (UniProt Q9Y3A3), inactive: 0.036; to MKNK1 (UniProt Q9BUB5), inactive: 0.02.
Still for that read-out and setting: to MIF4GD isoform 3 (UniProt A9UHW6) belongs inactive: -0.04; to MRPL1 (UniProt Q9BYD6), inactive: 0.039.
Still for that read-out and setting: to MLX (UniProt Q9UH92) belongs inactive: 0.008.
Consider MPI (UniProt P34949), for which the log2 fold change was inactive: -0.06.
The same measure, in the same setting: to MRGBP (UniProt Q9NV56) belongs inactive: -0.037; to MMTAG2 (UniProt Q9BU76), inactive: 0.001.
On to MPZL1 (UniProt O95297), for which the log2 fold change is inactive: -0.01.
Same read-out and setting: to MRPL23 (UniProt Q16540) belongs inactive: -0.054; to MPST isoform 2 (UniProt P25325), inactive: -0.014; to MRPL15 (UniProt Q9P015), inactive: -0.024.
Same read-out and setting: to MICOS10 (UniProt Q5TGZ0) belongs inactive: 0.047; to MIA2 (UniProt Q96PC5), inactive: 0.009.
Still for that read-out and setting: to MKI67 (UniProt P46013) belongs inactive: 0.005; to MKRN1 (UniProt Q9UHC7), inactive: 0.045.
On to MRPL14 (UniProt Q6P1L8), for which the log2 fold change is inactive: -0.027.
The same measure, in the same setting: to MICALL1 (UniProt Q8N3F8) belongs inactive: 0.012; to MICALL2 (UniProt Q8IY33), inactive: -0.022; to MINDY3 (UniProt Q9H8M7), inactive: -0.012.
Still for that read-out and setting: to MPP1 (UniProt Q00013) belongs inactive: -0.01.
Take MON2 isoform 5 (UniProt Q7Z3U7): the log2 fold change was inactive: 0.017.
The same measure, in the same setting: to MORF4L1 isoform 2 (UniProt Q9UBU8) belongs inactive: 0.011; to MPC2 (UniProt O95563), inactive: 0.012.
The same measure, in the same setting: to MIOS (UniProt Q9NXC5) belongs inactive: 0.029; to MKRN2 (UniProt Q9H000), inactive: 0.024; to MMUT (UniProt P22033), inactive: 0.
Still for that read-out and setting: to MORC2 (UniProt Q9Y6X9) belongs inactive: 0.054.
Turning to MMAB (UniProt Q96EY8), the log2 fold change is inactive: -0.025.
Consider MRPL19 (UniProt P49406), for which the log2 fold change was inactive: 0.034.
As to MRM3 (UniProt Q9HC36), the log2 fold change is inactive: 0.
On the same count and under the same terms, to MORF4L2 (UniProt Q15014) belongs inactive: 0.
On the same count and under the same terms, to MLXIP (UniProt Q9HAP2) belongs inactive: -0.006; to MGST3 (UniProt O14880), inactive: 0.041; to MINPP1 (UniProt Q9UNW1), inactive: -0.004.
Take MOV10 (UniProt Q9HCE1): the log2 fold change is inactive: 0.023.

Compound in a further experiment: CC(C)(O)CC(=O)NCCn1ccc2ncnc(Nc3ccc(Oc4cccc(C(F)(F)F)c4)c(Cl)c3)c21
The experiment is described as above. The essentials: as §1
For MGST1 (UniProt P10620), the log2 fold change is inactive: -0.047.
The same measure, in the same setting: to MRI1 (UniProt Q9BV20) belongs inactive: -0.039; to MOB4 (UniProt Q9Y3A3), inactive: -0.03.
On to MKNK1 (UniProt Q9BUB5), for which the log2 fold change was inactive: -0.019.
On the same count and under the same terms, to MIF4GD isoform 3 (UniProt A9UHW6) belongs inactive: -0.014; to MRPL1 (UniProt Q9BYD6), inactive: 0.011; to MLX (UniProt Q9UH92), inactive: -0.036.
Same read-out and setting: to MPI (UniProt P34949) belongs inactive: 0.009.
The same measure, in the same setting: to MRGBP (UniProt Q9NV56) belongs inactive: -0.005; to MMTAG2 (UniProt Q9BU76), inactive: -0.009.
As for MPZL1 (UniProt O95297), the log2 fold change is inactive: 0.022.
On the same count and under the same terms, to MRPL23 (UniProt Q16540) belongs inactive: 0.017; to MPST isoform 2 (UniProt P25325), inactive: -0.01; to MRPL15 (UniProt Q9P015), inactive: -0.056.
On the same count and under the same terms, to MICOS10 (UniProt Q5TGZ0) belongs inactive: -0.044; to MIA2 (UniProt Q96PC5), inactive: 0.045.
As to MKI67 (UniProt P46013), the log2 fold change is inactive: -0.005.
The same measure, in the same setting: to MKRN1 (UniProt Q9UHC7) belongs inactive: -0.082; to MRPL14 (UniProt Q6P1L8), inactive: -0.021.
The same measure, in the same setting: to MICALL1 (UniProt Q8N3F8) belongs inactive: -0.053; to MICALL2 (UniProt Q8IY33), inactive: -0.018.
MINDY3 (UniProt Q9H8M7): the log2 fold change was inactive: -0.001.
On the same count and under the same terms, to MPP1 (UniProt Q00013) belongs inactive: -0.002; to MON2 isoform 5 (UniProt Q7Z3U7), inactive: -0.042; to MORF4L1 isoform 2 (UniProt Q9UBU8), inactive: -0.062.
The same measure, in the same setting: to MPC2 (UniProt O95563) belongs inactive: -0.042.
The same measure, in the same setting: to MIOS (UniProt Q9NXC5) belongs inactive: 0.007; to MKRN2 (UniProt Q9H000), inactive: -0.032; to MMUT (UniProt P22033), inactive: 0.015.
As to MORC2 (UniProt Q9Y6X9), the log2 fold change was inactive: -0.035.
On the same count and under the same terms, to MMAB (UniProt Q96EY8) belongs inactive: -0.025; to MRPL19 (UniProt P49406), inactive: -0.057; to MRM3 (UniProt Q9HC36), inactive: 0.009.
Same read-out and setting: to MORF4L2 (UniProt Q15014) belongs inactive: -0.032; to MLXIP (UniProt Q9HAP2), inactive: -0.035.
The same measure, in the same setting: to MGST3 (UniProt O14880) belongs inactive: -0.046; to MINPP1 (UniProt Q9UNW1), inactive: 0.043.
Consider MOV10 (UniProt Q9HCE1), for which the log2 fold change was inactive: -0.019.

For the origin of these results see the supplement of paper PMC10849652.
